# Test results published in the supplement of paper PMC3334620.
# In all, about 33,000 sequences were measured (“E-score (-0.5 to 0.5)”: median about -0.0059, highest 2% from about 0.26 on). The list shows a part of the results.
# Biological target: T1, Cin5 (UniProt P40917)
# T1 sequence: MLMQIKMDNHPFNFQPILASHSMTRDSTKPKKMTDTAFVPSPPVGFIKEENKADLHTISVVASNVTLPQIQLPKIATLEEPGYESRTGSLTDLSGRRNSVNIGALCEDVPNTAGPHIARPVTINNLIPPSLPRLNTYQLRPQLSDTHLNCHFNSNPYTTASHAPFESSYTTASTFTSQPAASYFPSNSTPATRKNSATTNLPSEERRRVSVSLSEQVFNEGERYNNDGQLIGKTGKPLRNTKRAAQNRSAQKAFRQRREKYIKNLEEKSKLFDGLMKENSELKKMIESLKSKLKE
# Assay: PBM E-score (8-mer binding enrichment) (E-score (-0.5 to 0.5)); higher = stronger / more preferred TF binding
# Settings: protein concentration: 100 nM; construct: GST-full length
# Outline: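 Masliner-normalised scans of fluorescent anti-GST signal were the basis for scoring. That signal came from GST-tagged yeast transcription factors applied at about 100-200 nM to double-stranded universal all-10-mer Agilent arrays on fresh or once-stripped slides. Each ungapped eight-base word, pooled with its reverse complement, received an E-score from the Universal PBM Analysis Suite.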
row,Sequence,PBM E-score
1,ATGTCGCC,0.00761
2,AAAGTTAG,0.217
3,CATACCAG,-0.082
4,GCTGGTTA,-0.0216
5,CGCATGGC,-0.0651
6,GAAAGACA,0.158
7,CGGCAATC,-0.068
8,GATGACGC,0.0635
9,AGTATTTG,0.0515
10,AGAGCAAC,-0.203
11,AACGTTAT,0.161
12,ATTGCGGG,0.0938
13,ACGTAACT,0.0957
14,CCGGATCG,0.0425
15,ACATACCA,-0.112
16,CTCATTCC,0.147
17,GGTCGGGA,-0.0297
18,CGTTCTGA,-0.168
19,GCAGTTCA,-0.0631
20,CAGGTTTC,0.193
21,AGAACTCG,-0.0129
22,CCGGGTTA,-0.0642

row,Sequence,PBM E-score
1,AGCGCTAT,0.206
2,AAGACCGA,0.0206
3,GTGTGCCA,-0.132
4,AAGCGCTC,-0.0985
5,CTGTGAGA,-0.225
6,ATTCCTAC,0.098
7,AAGTCAAT,0.154
8,ATTATCCG,0.289
9,AGTCACGA,-0.141
10,CGTTACTA,0.0867
11,CTCTCACA,0.0393
12,CCGGAGGC,-0.25
13,GAGACTTA,-0.148
14,AGCCATAA,0.00286
15,AGACATCC,-0.0942
16,AAGCGTAA,0.0919
17,CTCCATGA,0.0384
18,GACATATA,0.137
19,TCAAACGA,-0.0242
20,CATTTTAC,0.263
21,ATTCATTC,0.299
22,AGGCCCCT,-0.265

row,Sequence,PBM E-score
1,CACGGACA,-0.023
2,TACTGCGA,0.011
3,CCACCCAC,0.066
4,AGTGAGGC,-0.0645
5,GCCTGCTA,-0.181
6,AGCACGAA,0.174
7,CTTATGCA,0.106
8,GTAAGTAC,0.138
9,AGGTTCTC,-0.153
10,CTTCGGCA,-0.123
11,AGATTACC,0.14
12,ACCAAATC,0.0874
13,CCTCCCAC,-0.214
14,TAATGGTA,-0.00375
15,TAATTGCA,0.181
16,ATACCGCC,0.0264
17,GTCTTGTA,-0.103
18,ATCTGGCC,-0.108
19,GTCTAGAC,-0.231
20,ACGAGTTA,0.163
21,CCCCAAGA,-0.0535
22,GCAGCTTA,0.073

row,Sequence,PBM E-score
1,CGCTATTC,0.132
2,AATGCCTC,0.00834
3,CAGCCGTC,-0.0317
4,ATTGTATG,0.18
5,TAGTAACA,0.145
6,AAATTGTA,0.169
7,CACAGCCG,-0.0347
8,CTCAGAAC,0.00723
9,AGTCCTTA,-0.0362
10,CCGTTAAA,-0.00661
11,AACATCGA,0.155
12,ATCACAAA,0.202
13,GCCAGGGA,-0.194
14,CGGTTCAA,-0.102
15,GGGGTAAC,-0.123
16,AGCGTGGA,-0.0913
17,ATTGCTAG,-0.02
18,ACAGGCTC,-0.212
19,GGAGCTCA,-0.23
20,CATCCGAG,0.00132

# At a glance, part of the list above:
row,Sequence,PBM E-score
12,ATCACAAA,0.202
13,GCCAGGGA,-0.194
